These results are taken from PMC4569712.

The chains behind the UniProt entries cited, without tags or fusion partners. Residues count along the entry.
UniProt Q61990, residues 1-81: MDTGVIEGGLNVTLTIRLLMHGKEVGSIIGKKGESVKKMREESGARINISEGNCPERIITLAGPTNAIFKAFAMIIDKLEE

This assay addresses Flag-tagged PCBP2 (aa 1–81) (mouse) (UniProt Q61990). Nature of the assay: co-IP; MEF cells co-transfected with Flag-tagged truncations and the FL HA-tagged partner; IP with anti-Flag antibody.

No constants are given. Whether binding was seen depends on the method and setting. In cells and extracts the contact can be indirect. Some results given as binding are weak or reduced against the parent protein; the word gives no strength. Tags and fused reporters may be left off the sequences shown.

B1: FL HA-tagged IRTKS (protein, UniProt Q9DBJ3 1-514)
chain: MSRGPEEVNRLTENTYRNVMEQFNPGLRNLINLGKNYEKAVNAMILAGKAYYDGVAKIGEIATGSPVSTELGHVLIEISSTHKKLNETLDENFKKFHKDIIHELEKKTELDVKYMNATLKRYQAEHRNKLDSLEKSQAELKKIRRKSQGGRNALKYEHKEIEYVETVTSRQSEIQKFIADGCKEALLEEKRRFCFLVDKHCSFASHIHYYHMQSAELLNSKLPRWQETCCDATKVPEKIMNMIEEIKTPISTPVSGTPQPSPMIERSKMIGKDYDTLSKYSPKMPPAPSVKAYTSPLIDMFNNPATAAQSSEKTNNSTANTGEDPSLQRSVSVATGLNMMKKQKVKTIFPHTAGNNKTLLSFAQGDVLTLLIPEEKDGWLYGEHDTTKARGWFPSSYTKLLEENEAMSVPTPSPAPVRSISTVDLTEKSSVVIPPPDYLECLSMGATSDKKAGAPKVPSASTFRAPVSRPDATSTSPSDANGTAKPPFLSGENPFATVKLRPTVTNDRSAPIIR
On to B1, for which the binding entry is given as “binds”.
